Some of the results follow. Further columns of the screen follow, without active or inactive calls. Most of these compounds were active or inconclusive in the main read-out, so they are no random draw. Potencies come from curve fits of mixed quality, noted in brackets.
Assay: qHTS Assay for Lipid Storage Modulators in Drosophila S3 Cells;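 for cell number change: cells counted by Cell Tracker Red CMTPX staining in the red channel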
Conditions: BODIPY lipid droplet fluorescence, 18-24 h; for cell number change: measured here: cell count max response, cells fed with added oleic acid
Outline: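 Drosophila S3 cells got compounds at several concentrations plus oleic acid (400 uM solution). Laser-scanning cytometry with 488 nm excitation read lipid droplets at 500-530 nm and cells at 575-640 nm. Percent activity was relative to 20 uM Triacsin C.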

[1] = measured here: lipid fluorescence (Fed channel) AC50, cells fed with added oleic acid
[2] = measured here: cell number channel AC50, cells fed with added oleic acid

SMILES	cell number change	AC50 [1]	AC50 [2]
O=C(Nc1ncc(Cl)cn1)c1cccs1	19.7%	6.51 µM [falling, single point]	–
C/C(=N\NC(=O)C1COc2ccccc2O1)c1cc2ccccc2o1 (configuration not stated)	32%	–	1.84 µM [rising, partial curve, poor fit]
Cc1ccc(CN2CCN(CC(=O)N3CCc4ccccc4C3)C2=O)cc1	34.3%	–	32.6 µM [rising, single point]
COc1ccccc1CNC(=O)COC(=O)c1c[nH]c2ccccc12	-13.1%	–	1.16 µM [falling, full curve, poor fit]
COc1ccc(C(=O)Nc2ccc(Cl)cc2F)cc1S(=O)(=O)N1CCCC1	-5.93%	6.51 µM [rising, single point]	–
COc1ccc(NC(=O)COC(=O)C2CC2)cc1S(=O)(=O)N1CCCCC1	-8.28%	7.31 µM [falling, single point]	–
Cc1cc(NC(=O)COC(=O)C2CCC(=O)N2)c([N+](=O)[O-])cc1C (configuration not stated)	–	0.231 µM [rising, full curve, poor fit]	6.51 µM [falling, single point]
CC(C)=C1C2CCC1C1C(=O)N(NC(=O)COc3ccc(C(C)(C)C)cc3)C(=O)C21 (configuration not stated)	0.643%	29.1 µM [rising, single point]	–
O=C1OC(Cc2ccccn2)C(=O)C1=C1SCCS1 (configuration not stated)	-6.75%	–	–
CCCCCCC(=O)Nc1ccc(Cl)cn1	-3.82%	6.51 µM [falling, single point]	–
COc1ccc(CN2CCN(C(=O)CN3C(=O)C4C5C=CC(C5)C4C3=O)CC2)c(OC)c1OC (configuration not stated)	-35.3%	14.6 µM [falling, partial curve, poor fit]	29.1 µM [falling, single point]
O=C(CCC1CCCN(C(=O)c2ccc(F)c(F)c2)C1)N1CCN(c2ccccn2)CC1 (configuration not stated)	5.57%	–	–
O=P(O)(O)CCP(=O)(c1ccccc1)c1ccccc1	-5.2%	13 µM [falling, partial curve]	–
Cc1noc(/C=C/NCc2cccnc2)c1S(=O)(=O)N(C)CC(=O)N1CCc2ccccc21	12.5%	1.46 µM [rising, partial curve, poor fit]	–
CCc1nnc(NC(=O)CCCSc2nc3ccccc3[nH]2)s1	40.8%	–	–
Cc1cccc(OC(C)C(=O)OCC(=O)Nc2sccc2C(N)=O)c1 (configuration not stated)	8.34%	–	–
CNC(=O)c1csc(Cc2c(Cl)sc3ccc(Cl)cc23)n1	5.39%	2.06 µM [rising, full curve, poor fit]	–
COc1ccc(C2NC3=C(CCC3)C3(C#N)C(OC)(OC)N=C(N)C23C#N)cc1 (configuration not stated)	-21%	0.164 µM [falling, full curve]	–
COC(=O)[C@H](Cc1ccccc1)NC(=O)C1(OC(C)=O)CC(OC(C)=O)C(OC(C)=O)C(OC(C)=O)C1 (some centres not stated)	-30.6%	5.8 µM [falling, full curve]	5.8 µM [falling, full curve, poor fit]
O=C(COC(=O)/C=C/c1cccc(Br)c1)NC1CC1	11.7%	29.1 µM [rising, single point]	–

2 of the compounds above, as comma-separated lines.
SMILES,cell number change,AC50 [1],AC50 [2]
COc1ccc(CN2CCN(C(=O)CN3C(=O)C4C5C=CC(C5)C4C3=O)CC2)c(OC)c1OC (configuration not stated),-35.3%,"14.6 µM [falling, partial curve, poor fit]","29.1 µM [falling, single point]"
COc1ccc(C2NC3=C(CCC3)C3(C#N)C(OC)(OC)N=C(N)C23C#N)cc1 (configuration not stated),-21%,"0.164 µM [falling, full curve]",–

Carrying on:

SMILES	cell number change	AC50 [1]	AC50 [2]
c1ccc([C@H]2CC3C[C@@H](c4ccccc4)N2O3)cc1	-0.856%	0.731 µM [rising, single point]	–
Cc1cc(=O)n2[nH]cc(-c3ccccc3)c2n1	10.1%	29.1 µM [rising, single point]	–
Cc1cccc(NC(=O)CCS(=O)(=O)c2cccc3nonc23)c1C	6.31%	–	–
CC(CCc1ccccc1)NS(=O)(=O)c1ccc(Cl)c(C(=O)O)c1 (configuration not stated)	26.5%	–	–
COc1cc2c(cc1NC(=O)CCCCCN1C(=O)CCC1=O)oc1ccccc12	–	–	0.517 µM [rising, full curve]
S=C(Nc1ccc(Br)cc1)N1CCn2cccc2C1c1cccnc1 (configuration not stated)	-5.52%	–	6.51 µM [rising, partial curve, poor fit]
CC1CCN(C(=O)CSc2nc(N)cc(N)n2)CC1	12.4%	0.164 µM [falling, full curve]	–
Cc1nc(NC(=O)CCC(=O)O)sc1C(=O)N(C)C	-0.148%	–	0.731 µM [falling, single point]
COc1ccc(C(=O)CSc2n[nH]c(=O)n2Cc2ccco2)cc1	14.2%	6.51 µM [rising, partial curve]	–
O=S(=O)(NCCc1ccncc1)c1cc(Br)ccc1F	101%	18.4 µM [rising, partial curve]	20.6 µM [rising, single point]
COc1ccccc1CC(=O)NC1CC1	-2.75%	6.51 µM [rising, single point]	–
COc1ccccc1N1CCN(C(=O)CSc2ncccc2-c2nc3ccccc3[nH]2)CC1	-70.1%	2.31 µM [rising, single point]	3.26 µM [falling, partial curve]
Cc1cc([N+](=O)[O-])nn1CC(=O)N1CCOCC1	4.75%	–	–
COc1ccc(C(=O)O)c(OC)n1	36.4%	0.0116 µM [rising, full curve, poor fit]	0.164 µM [rising, full curve, poor fit]
O=C(Nc1ccc2ccccc2c1)c1cnccn1	-3.04%	13 µM [rising, partial curve]	–
O=C(CN1CCN(c2ncc(C(F)(F)F)cc2Cl)CC1)NC(=O)NCc1ccccc1	-6.98%	32.6 µM [rising, single point]	0.461 µM [rising, full curve, poor fit]
Cc1[nH]c(C)c(S(=O)(=O)NCCc2ccc(S(N)(=O)=O)cc2)c1C(=O)N1CCCC1	-1.47%	29.1 µM [falling, single point]	–
CCC(C(=O)NC1CCCCC1)N(Cc1cccs1)C(=O)CCC(=O)Nc1cc(C)on1 (configuration not stated)	5.24%	0.517 µM [rising, full curve, poor fit]	–
COc1ccc(-c2c(C(F)(F)F)nn(C)c2NC(C)=O)cc1	38.2%	29.1 µM [rising, single point]	8.2 µM [rising, partial curve]
